Source: publication PMC7819943, “Rice protein-binding microarrays: a tool to detect cis-acting elements near promoter regions in rice”
The list shows a part of the results.

What follows are sequences tested against T1, OsSMF1 (Oryza sativa, UniProt Q6ZLB0 1-436) (assay: protein-binding microarray (RPBM); PBS, 2% BSA, 51.3 ng/ul salmon testes DNA, 50 uM zinc acetate, 200 nM TF, 25 C, 1 h; high values mean tight binding). Conditions: protein: recombinant; tags: N-terminal polyhistidine and DsRed monomer fusion (pET32a); chain copies: 2; label: CyDye5-dUTP incorporated in the synthesized complementary strand; 3' TTTTT single-stranded linker to array surface; dsDNA, one strand shown.
T1 sequence: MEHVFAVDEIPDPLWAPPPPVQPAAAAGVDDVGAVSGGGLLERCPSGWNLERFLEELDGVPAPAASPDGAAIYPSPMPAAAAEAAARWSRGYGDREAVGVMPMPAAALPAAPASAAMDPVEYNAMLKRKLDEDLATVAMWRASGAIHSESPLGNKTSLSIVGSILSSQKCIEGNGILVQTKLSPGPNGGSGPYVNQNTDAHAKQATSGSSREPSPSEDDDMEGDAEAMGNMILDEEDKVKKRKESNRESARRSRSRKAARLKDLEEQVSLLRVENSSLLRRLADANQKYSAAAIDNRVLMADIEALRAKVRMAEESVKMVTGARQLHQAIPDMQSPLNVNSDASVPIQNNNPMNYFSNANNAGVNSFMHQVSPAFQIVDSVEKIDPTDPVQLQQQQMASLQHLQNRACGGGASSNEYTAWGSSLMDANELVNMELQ
Procedure, shortened: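 The binding signal for each feature is its fluorescence intensity in arbitrary units. An Axon 4000B scanner was used to read a custom Agilent array that had been made double-stranded with Cy5-dUTP primer extension, blocked with 2% BSA, incubated at 25 °C for 1 h with 200 nM protein in PBS, 2% BSA, salmon testes DNA and 50 µM zinc acetate, and washed. The protein was an N-terminal polyhistidine–DsRed transcription factor fusion from E. coli BL21-CodonPlus, purified on Ni–NTA.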
With “TTTCTTTTCAAAACATATCCATATACACGTGCACACACTCCGGAGTCACCTAGTGCAG” the binding signal was 5530 fluorescence intensity (a.u.).
“TTTAGTTGAAATTAAACATATCCACGTATTCATTTTATACCGGAGTCACCTAGTGCAG” was tested, and the binding signal was 4880 fluorescence intensity (a.u.).
“TGCTCTCTGTAAATGTAATGTGCATGGGTGTCATATCTAGCGGAGTCACCTAGTGCAG” was tested, and the binding signal was 3620 fluorescence intensity (a.u.).
“TGTGCACGAGCTTAGCGAGGGTGGTCGGTGATCTGCTCGGCGGAGTCACCTAGTGCAG” was tested, and the binding signal was 3380 fluorescence intensity (a.u.).
With “TCGCCGGTCAGAGGCCACTGTGTCATCGTGCTTCTCCGACCGGAGTCACCTAGTGCAG” the binding signal was 3750 fluorescence intensity (a.u.).
With “CCTGCATCAAGAGGATGCGTCACCGATGAGTAGATCCTGCCGGAGTCACCTAGTGCAG” the binding signal was 6970 fluorescence intensity (a.u.).
For “CATCAACACTTCGCATCGTGTGCTTGCAACTCACGGCTCACGGAGTCACCTAGTGCAG”, the binding signal was 3400 fluorescence intensity (a.u.).
With “GCACGAATCATGGAGTAGATATAAAGGTCAAGATTTGCAACGGAGTCACCTAGTGCAG” the binding signal was 3490 fluorescence intensity (a.u.).
In the case of “AATTTAATGCCACGTAAGCGCCACGTTGATGCTATGTAAGCGGAGTCACCTAGTGCAG”, the binding signal is reported as 35700 fluorescence intensity (a.u.).
In the case of “ACTATCGGTACATATCTTATTGACATCATGCCTATATGACCGGAGTCACCTAGTGCAG”, the binding signal is reported as 4560 fluorescence intensity (a.u.).
For “GCTACGATGCGATCTCATCATCATCATCCATTCATTCATTCGGAGTCACCTAGTGCAG”, the binding signal was 3440 fluorescence intensity (a.u.).
In the case of “TCAATAAATCATAAAACAAATTTATTAAGCCTAATTAATCCGGAGTCACCTAGTGCAG”, the binding signal is reported as 24300 fluorescence intensity (a.u.).
For “ATAAGTCCACAAACATTTGGCCCACTTCCCCGTCACACCTCGGAGTCACCTAGTGCAG”, the binding signal was 4220 fluorescence intensity (a.u.).
“GAAACGTGACGGCAACGTCAGCTTTATTACCGATGCAGGTCGGAGTCACCTAGTGCAG” was tested, and the binding signal was 7060 fluorescence intensity (a.u.).
With “AGGGGTCCTAATAGTAGAGAATGACGAAGCAAATTTTGCACGGAGTCACCTAGTGCAG” the binding signal was 4360 fluorescence intensity (a.u.).
For “TTGTTGTTTACCGTCACACTTAATTACCAGGTCATTTACACGGAGTCACCTAGTGCAG”, the binding signal was 3850 fluorescence intensity (a.u.).
For “TATAATTGCCACGGTCATCGCCACATCAATGTCACGTGGGCGGAGTCACCTAGTGCAG”, the binding signal was 4640 fluorescence intensity (a.u.).
For “TTGTTTATAAAGACAATAGGTGGAATTTGATCTGGAAATGCGGAGTCACCTAGTGCAG”, the binding signal was 27600 fluorescence intensity (a.u.).
“ACGGGCATGGGTAGTCACTACCCGTGCCCGTCGTGCCCGACGGAGTCACCTAGTGCAG” was tested, and the binding signal was 3560 fluorescence intensity (a.u.).
For “AAGAACGCCTTCGCGTGGGCCGCCGTCATCGGGATGTGGACGGAGTCACCTAGTGCAG”, the binding signal was 3220 fluorescence intensity (a.u.).
For “GGCTCACTTATTGGGTCAACTAAACTTGTATTATTGGAATCGGAGTCACCTAGTGCAG”, the binding signal was 38500 fluorescence intensity (a.u.).
With “AGCTGGACAAGATCGGAATAGTAGGCCAGGCCCAAAGCAACGGAGTCACCTAGTGCAG” the binding signal was 49400 fluorescence intensity (a.u.).
“CGAGTGACGGGTACGTGGATGATGAGGTGGTGACTGGTGACGGAGTCACCTAGTGCAG” was tested, and the binding signal was 6470 fluorescence intensity (a.u.).
For “TATGAAATGAAGTGGCGGCTCTGCATCCGCTAACGACGCCCGGAGTCACCTAGTGCAG”, the binding signal was 3720 fluorescence intensity (a.u.).
“GTAGGCTAGCGATCCATGACACGGTGGCCCGAGCAGAGGCCGGAGTCACCTAGTGCAG” was tested, and the binding signal was 3690 fluorescence intensity (a.u.).
“GATGCACTTCAGCACTTCGCAATCGATGACTAGATCAAACCGGAGTCACCTAGTGCAG” was tested, and the binding signal was 4020 fluorescence intensity (a.u.).
In the case of “TTGTGCTTTTCAGTTTCCACTTTCCAGCATGGATTTGCGCCGGAGTCACCTAGTGCAG”, the binding signal is reported as 3380 fluorescence intensity (a.u.).
With “TAACATAAAGACAGTGATGAGCTGGGCAAAGGTCACCGGTCGGAGTCACCTAGTGCAG” the binding signal was 3140 fluorescence intensity (a.u.).
For “AGAAATTAAATTTAATCAGCACAGATCAACACACGTAAGTCGGAGTCACCTAGTGCAG”, the binding signal was 3250 fluorescence intensity (a.u.).
For “GTCTATTCTACCAGACCACATCCTGTCCACGTCACTCGTTCGGAGTCACCTAGTGCAG”, the binding signal was 30400 fluorescence intensity (a.u.).
For “TTTGTGTTTCAGCTCGGTGACACCAACCACGTATGTGCTACGGAGTCACCTAGTGCAG”, the binding signal was 5120 fluorescence intensity (a.u.).
With “AGTTTGTTAAACCGTGGATTGACTCATGACTTATCTACTACGGAGTCACCTAGTGCAG” the binding signal was 6460 fluorescence intensity (a.u.).
With “GGCATCACTCACAATAATTCTTTAGGGCCCGATGTAGCACCGGAGTCACCTAGTGCAG” the binding signal was 28000 fluorescence intensity (a.u.).
In the case of “GATGTATGTGAGCCACAACTTTGCAAGTGGTGGACGAGCCCGGAGTCACCTAGTGCAG”, the binding signal is reported as 3730 fluorescence intensity (a.u.).
With “CACATTAACCTATTATTTACAGGTATAAACAAACATACTACGGAGTCACCTAGTGCAG” the binding signal was 25000 fluorescence intensity (a.u.).
“GATCAAAATATCAAAAGCTTGACTAATTTTATCCAAAACACGGAGTCACCTAGTGCAG” was tested, and the binding signal was 18900 fluorescence intensity (a.u.).
In the case of “GAGATAGATCAAAGCGGTGAGTTGCATGACTCATGTTCGACGGAGTCACCTAGTGCAG”, the binding signal is reported as 8610 fluorescence intensity (a.u.).
“GATCATGATGTCGTCGTGGATATATACCTTACCATGGATACGGAGTCACCTAGTGCAG” was tested, and the binding signal was 3290 fluorescence intensity (a.u.).
For “CGATGAGCACCGCAGCGATTGACATATTGCAATATCGTTCCGGAGTCACCTAGTGCAG”, the binding signal was 3550 fluorescence intensity (a.u.).
In the case of “GCCGCCGCCACCGCCGCCGCAGCCTCCTCTCGCTCCGCCTCGGAGTCACCTAGTGCAG”, the binding signal is reported as 18300 fluorescence intensity (a.u.).
For “TGCCTGCATGTCCACCGCCGGCACTAGCAGCCACGCTCGCCGGAGTCACCTAGTGCAG”, the binding signal was 3310 fluorescence intensity (a.u.).
For “AGATTCCTGTCATGTGTCCAATTAAGGCTTTGTTCATCGTCGGAGTCACCTAGTGCAG”, the binding signal was 3240 fluorescence intensity (a.u.).
